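Assay of Toxoplasma gondii numbers, read through their beta-galactosidase reporter with a colour substrate. Tested at 50 µM. Higher reads as fewer parasites (inferred from which compounds were picked for retests). Size under these conditions: about 18,000 compounds, about 170 of them at 50% or above in at least one test.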

Each number is a percent effect as filed. The record does not define 0% and 100%; most values in the screen are far below 50% and negative numbers occur (in some assays of this library far below -100). This is an unselected part of the compounds tested.

* CC(C)CN(CC(N)=O)CC(=O)NC1CC1 | 14.18%
* CNC(=O)c1cc2ccccc2[nH]c1=O | -5.654%
* COc1ccc(CNC(=O)c2cnccn2)cc1OC | -6.198%
* O=C(NCc1cn2ccccc2n1)c1ccc(=O)oc1 | -17.09%
* CCN(CC(=O)N1CCNC(=O)C1)Cc1ccc(Cl)s1 | -2.303%
* N#Cc1ccccc1N1CCCC(N)C1 (configuration not stated) | -2.544%
* COc1cc(F)ccc1N1CCNCC1 | 26.08%
* Cc1cc(CN(C)C(=O)CN2CCC(N(C)C)C2)on1 (configuration not stated) | -5.841%
* Cc1ccc2c(OCC(N)=O)cccc2n1 | -15.21%
* COCCNC(=O)CN1CCC(O)CC1 | -6.029%
* CN(Cc1ccc2c(c1)OCO2)S(=O)(=O)c1cccs1 | -6.334%
* Cc1nc(Cn2cc(S(=O)(=O)N(C)C)ccc2=O)cs1 | -14.4%
* O=C(NCCn1cccc1)c1ccc(Cl)cn1 | 0.6985%
* CC(=O)NCCCNc1ccnc2cc(Br)cnc12 | -2.508%
* NC(=O)C1CCN(CCC(=O)Nc2ccccc2)CC1 | -1.888%
* CC(CO)S(=O)(=O)Cc1nccn1Cc1ccccc1 (configuration not stated) | 3.127%
* CC(NCCNC(=O)c1ccn[nH]1)c1cccs1 (configuration not stated) | -5.367%
* NCc1cc(C(F)(F)F)on1 | 3.543%
* N#CCOC(=O)CC(NC(N)=O)c1ccccc1 (configuration not stated) | 0.9962%
* Cn1cc(CN2C(=O)c3ccccc3CS2(=O)=O)cn1 | 4.222%
* O=C(Nc1ccc2oc(=O)[nH]c2c1)C1CC1 | -13.7%
* CN1C(=O)CCC1C(=O)N1CCc2ccc(F)cc21 (configuration not stated) | 14.29%
* C[C@H]1C[C@@H](CO)CCN1 | -5.593%
* Fc1ccc(NCC2CCC3(CC2)OCCO3)nc1 | 8.487%
* NS(=O)(=O)c1ccc(NC(=O)c2ccccc2O)cc1 | -3.624%
* CN(CCc1ccccc1)CCS(=O)(=O)CCC(N)=O | -27.63%
* CCC(CNC(=O)C1=NN(C)C(=O)CC1)N1CCCC1 (configuration not stated) | -1.755%
* COC(C)C(=O)NCc1cnc(C)s1 (configuration not stated) | -4.743%
* CN(Cc1ccsc1)CC(O)COCc1ccco1 (configuration not stated) | 0.7289%
* O=S(=O)(NCC(O)COCc1ccco1)c1cccs1 (configuration not stated) | -2.117%
* C1COCCN(C2CCNCC2)C1 | -20.72%
* COCCN(Cc1ccco1)C(=O)c1cnc(C)cn1 | 0.3972%
* Cc1ccc(NC(=O)C(C)N2CCC(O)CC2)cc1 (configuration not stated) | -7.967%
* CCC[C@H]1CN(C(=O)c2cc(F)ccc2OC)C[C@@H]1N | 19.64%

Data taken from ChEMBL document CHEMBL3988442, “University of Dundee, Small-Polar-MMV Screening Library” (2021).